Assay results as given in patent US20230277603A1, “VEILLONELLA PARVULA STRAIN AS AN ORAL THERAPY FOR NEUROINFLAMMATORY DISEASES” (Evelo Biosciences, Inc., priority 2020, published 2023).
At least one compound was matched to its structure with a doubt left.

Tested on: relapse-remitting EAE model induced with PLP139-151 peptide in SJL mice
Assay: SJL EAE model, therapeutic treatment (Example 3), spinal cord histopathology (inflammation, demyelination)
Format: in vivo
Settings: therapeutic PO QD day ~11 - day 42, Strain A 10 mg/dose, Fingolimod 1 mg/kg

CCCCCCCCc1ccc(CCC(N)(CO)CO)cc1 [Fingolimod]
0.0±0.0: Demyelination Average (score) (average of cervical, thoracic, lumbar) | Demyelination Cervical (score) | Demyelination Lumbar (score) | Demyelination Thoracic (score)
